According to article PMC11720578:
Results are given in words; binding and its absence hold for the method and conditions named. Binding seen in cells or lysates may run through a third protein. Some binding calls cover weakened binding; strength is not graded here.

By UniProt entry, the sequences of proteins in these tests, tags left out.
UniProt P35222: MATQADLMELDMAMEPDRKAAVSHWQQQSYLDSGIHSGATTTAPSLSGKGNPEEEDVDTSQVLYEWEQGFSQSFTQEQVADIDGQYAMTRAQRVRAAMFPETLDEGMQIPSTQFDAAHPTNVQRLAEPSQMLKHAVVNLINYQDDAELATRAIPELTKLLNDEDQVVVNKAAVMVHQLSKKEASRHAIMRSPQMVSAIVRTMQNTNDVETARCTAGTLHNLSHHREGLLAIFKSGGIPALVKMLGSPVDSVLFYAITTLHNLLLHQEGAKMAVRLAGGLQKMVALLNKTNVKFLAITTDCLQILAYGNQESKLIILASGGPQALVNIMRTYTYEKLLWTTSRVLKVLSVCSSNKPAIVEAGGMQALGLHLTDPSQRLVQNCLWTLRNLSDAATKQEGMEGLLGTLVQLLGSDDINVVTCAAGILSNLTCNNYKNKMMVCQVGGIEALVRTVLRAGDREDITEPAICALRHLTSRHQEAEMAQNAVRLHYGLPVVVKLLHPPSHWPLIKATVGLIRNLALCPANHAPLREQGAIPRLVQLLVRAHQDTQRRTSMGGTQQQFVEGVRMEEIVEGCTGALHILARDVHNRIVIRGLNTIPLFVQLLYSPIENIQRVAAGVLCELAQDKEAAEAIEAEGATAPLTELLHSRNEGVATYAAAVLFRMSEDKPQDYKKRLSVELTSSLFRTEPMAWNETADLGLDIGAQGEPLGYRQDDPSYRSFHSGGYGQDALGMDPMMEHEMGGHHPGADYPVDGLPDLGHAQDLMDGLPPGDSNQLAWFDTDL
UniProt Q09472: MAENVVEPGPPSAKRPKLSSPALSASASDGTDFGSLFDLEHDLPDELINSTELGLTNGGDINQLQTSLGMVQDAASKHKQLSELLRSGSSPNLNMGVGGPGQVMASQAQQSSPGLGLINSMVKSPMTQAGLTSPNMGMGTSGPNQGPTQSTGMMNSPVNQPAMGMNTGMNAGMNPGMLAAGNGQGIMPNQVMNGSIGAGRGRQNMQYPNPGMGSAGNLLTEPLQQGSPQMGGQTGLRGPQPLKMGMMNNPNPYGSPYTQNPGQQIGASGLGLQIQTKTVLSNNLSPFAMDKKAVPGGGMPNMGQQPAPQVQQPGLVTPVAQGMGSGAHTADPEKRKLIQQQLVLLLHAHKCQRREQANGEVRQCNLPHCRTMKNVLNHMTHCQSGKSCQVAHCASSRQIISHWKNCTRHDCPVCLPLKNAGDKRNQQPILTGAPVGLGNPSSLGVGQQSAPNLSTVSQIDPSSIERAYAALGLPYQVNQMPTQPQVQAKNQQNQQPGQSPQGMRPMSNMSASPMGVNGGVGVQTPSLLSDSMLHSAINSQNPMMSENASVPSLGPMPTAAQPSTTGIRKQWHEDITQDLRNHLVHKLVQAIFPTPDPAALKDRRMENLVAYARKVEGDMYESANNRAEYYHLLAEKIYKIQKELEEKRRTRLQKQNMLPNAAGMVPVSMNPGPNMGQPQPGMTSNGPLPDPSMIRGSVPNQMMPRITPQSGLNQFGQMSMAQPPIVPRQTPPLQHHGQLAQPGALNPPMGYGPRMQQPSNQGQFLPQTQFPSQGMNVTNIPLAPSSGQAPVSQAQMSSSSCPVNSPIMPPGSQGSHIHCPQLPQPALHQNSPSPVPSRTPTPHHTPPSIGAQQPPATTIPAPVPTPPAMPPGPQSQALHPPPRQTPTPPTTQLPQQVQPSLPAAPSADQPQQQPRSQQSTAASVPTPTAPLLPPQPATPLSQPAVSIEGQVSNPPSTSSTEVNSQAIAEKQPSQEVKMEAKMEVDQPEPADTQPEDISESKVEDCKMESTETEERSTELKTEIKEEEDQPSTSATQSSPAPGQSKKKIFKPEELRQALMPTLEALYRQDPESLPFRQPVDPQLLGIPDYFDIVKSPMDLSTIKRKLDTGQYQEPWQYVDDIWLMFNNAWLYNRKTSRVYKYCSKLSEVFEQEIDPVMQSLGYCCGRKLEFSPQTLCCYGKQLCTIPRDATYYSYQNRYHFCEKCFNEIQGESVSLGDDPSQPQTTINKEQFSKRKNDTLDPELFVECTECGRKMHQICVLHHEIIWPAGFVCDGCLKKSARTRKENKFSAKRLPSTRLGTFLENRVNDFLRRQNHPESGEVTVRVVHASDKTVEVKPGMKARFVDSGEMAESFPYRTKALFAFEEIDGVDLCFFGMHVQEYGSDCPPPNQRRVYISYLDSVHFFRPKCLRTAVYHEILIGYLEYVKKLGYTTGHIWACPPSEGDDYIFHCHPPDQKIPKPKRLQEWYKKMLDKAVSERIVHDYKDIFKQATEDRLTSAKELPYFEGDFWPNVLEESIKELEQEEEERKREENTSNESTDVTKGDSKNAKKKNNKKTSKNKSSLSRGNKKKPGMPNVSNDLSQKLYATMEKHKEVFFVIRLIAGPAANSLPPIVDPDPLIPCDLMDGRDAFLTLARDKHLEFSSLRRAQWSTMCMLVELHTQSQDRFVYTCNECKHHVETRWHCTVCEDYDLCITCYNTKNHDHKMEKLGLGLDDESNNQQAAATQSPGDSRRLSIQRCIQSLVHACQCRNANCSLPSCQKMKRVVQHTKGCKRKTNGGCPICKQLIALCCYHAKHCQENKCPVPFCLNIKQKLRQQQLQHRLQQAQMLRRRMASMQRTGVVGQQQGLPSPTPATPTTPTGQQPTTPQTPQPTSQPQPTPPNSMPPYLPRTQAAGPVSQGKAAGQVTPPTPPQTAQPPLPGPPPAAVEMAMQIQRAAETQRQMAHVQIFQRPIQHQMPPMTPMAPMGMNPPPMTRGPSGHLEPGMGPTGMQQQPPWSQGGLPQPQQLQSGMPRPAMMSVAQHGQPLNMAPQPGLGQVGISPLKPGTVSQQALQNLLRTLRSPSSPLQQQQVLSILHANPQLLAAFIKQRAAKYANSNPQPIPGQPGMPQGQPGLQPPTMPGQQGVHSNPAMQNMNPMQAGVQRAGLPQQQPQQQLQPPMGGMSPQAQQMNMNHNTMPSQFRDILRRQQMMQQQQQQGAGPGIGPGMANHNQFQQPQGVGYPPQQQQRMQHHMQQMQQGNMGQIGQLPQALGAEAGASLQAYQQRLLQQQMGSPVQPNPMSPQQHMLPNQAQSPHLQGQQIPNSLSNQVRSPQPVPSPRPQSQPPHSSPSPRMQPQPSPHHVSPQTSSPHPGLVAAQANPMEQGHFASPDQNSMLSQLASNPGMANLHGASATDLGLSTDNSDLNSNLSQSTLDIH

Biological target: β-catenin (human (endogenous in hbl116)) (UniProt P35222)
Assay: co-IP; endogenous proteins of hbl116 cells treated with DMSO, cisplatin (1 μM), PRI-724 (5 μM) or cisplatin plus PRI-724; precipitating antibody and conditions not told

binding: binds
Substance: p300 (from UniProt Q09472 1-2414)
